Measured data: PubChem BioAssay AID1259323 (Peter MacCallum Cancer Centre, 2017)

Assay: 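Kinase siRNA screen linking the PAR2 receptor to the TRPV4 channel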 (primary screen)
System: human HEK293 cells stably carrying inducible TRPV4
Reagent: siRNA pool against human genes
Treatment: PAR2 activation; agonist identity and dose not given
Detection: 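Signal of a calcium dye in live cells following PAR2 activation, plateau and early peak normalised to mock transfection on each plate, mean of duplicate plates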
Reading the numbers: TRPV4 plateau calcium, % of mock: higher = stronger sustained TRPV4 calcium entry than mock; PAR2 peak calcium, % of mock: higher = stronger early PAR2 calcium response than mock
Hit rule: 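Active if plateau calcium is under 90% of mock and early peak calcium stays over 79% of mock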
Here is one part, drawn at random, of 715 reagents tested. In the full data, 91 (13%) were called active. 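Active pools lower the sustained TRPV4 phase but spare the early PAR2 peak; PAR2 agonist and dose are not stated; pools repeat across wells.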 A number with no mark means an inactive call. The numbers tell different reagents against one gene apart. Reagent sequences are not shown. The record does not give: the amount of reagent, the time to read-out.

gene,reagent,"TRPV4 plateau calcium, % of mock","PAR2 peak calcium, % of mock"
TNK2,1,93.4,90.8
TGFBR3,1,89.9 (active),98.2
GTF2H1,1,91.5,91.6
SRPK2,1,95.6,98.2
SGK2,1,105,108
NEK2,1,84.9 (active),89.8
CDC42BPB,1,104,99.7
PRKCB,1,110,103
MAGI2,1,102,100
PDIK1L,1,93.4,92.4
MAP3K6,1,95,104
RPS6KC1,1,112,103
CSNK1A1L,1,100,103
RBKS,1,94.9,96.2
DLG1,1,108,100
EFNA4,1,96.1,91.3
GSK3A,1,91,93.4

Not a retest: an excerpt of the list.
gene,reagent,"TRPV4 plateau calcium, % of mock","PAR2 peak calcium, % of mock"
NEK2,1,84.9 (active),89.8
CDC42BPB,1,104,99.7
PRKCB,1,110,103
MAGI2,1,102,100

More results follow:
gene,reagent,"TRPV4 plateau calcium, % of mock","PAR2 peak calcium, % of mock"
RIOK2,1,96.9,95.4
CDK12,1,109,97.9
COQ8B,1,89.2 (active),99.5
PRKCSH,1,93.3,101
ALPK3,1,112,103
DBF4,1,99.1,105
CDK11A,1,96.1,94.4
CKS1B,1,81.8 (active),86
ILK,1,110,107
ILK,2,91.8,95.3
TRIB3,1,100,97.8
IP6K1,1,97.7,97.1
ABL1,1,95.2,97.8
GUCY2C,1,82.1 (active),83.8
CSNK2A2,1,90.4,91.6
RPS6KA2,1,103,100
PRKG2,1,92.8,90.2
